Assay results taken from PubChem BioAssay AID493014 (National Center for Advancing Translational Sciences (NCATS), 2011).
Some of the results follow. These are further read-outs of the screen, such as a control signal, another cell line or another target. No call is given for them. Most of these compounds were active or inconclusive in the main read-out, so they are no random draw. Words in brackets tell the shape of the fitted curve; partial curves, single points and poor fits give uncertain potencies.

Assay: qHTS Assay to Find Inhibitors of Chronic Active B-Cell Receptor Signaling
Settings: ABC-DLBCL IkBa-CBG/CBR reporter, luminescence ratio (green luciferase fused to IkBa over red control in TMD8 lymphoma cells), 4 h
Method in brief: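 Concentration-response series (up to 46 uM) were applied to TMD8 dual-reporter cells for 4 h at 37C with doxycycline. Green/red ratio, after filter-overlap correction, defined %Activity; red signal alone was normalised to basal cells and zero luminescence.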

[1] = measured here: CBR red luminescence, cell number

SMILES: CCOCCCNC(=O)C1CC(=O)N(CCc2ccccc2)C1 (stereo unspecified)
- AC50 [1]: 35.5 µM [rising, single point]

SMILES: Cc1sc(NC(=O)Nc2ccccc2)c(C(N)=O)c1C
- AC50 [1]: 14.1 µM [falling, single point]

SMILES: COc1ccc2nc(NC(=O)c3ccc([N+](=O)[O-])o3)sc2c1
- AC50 [1]: 3.98 µM [falling, full curve]

SMILES: Cc1cnc(NC(=O)CSc2nc3ccccc3s2)s1
- AC50 [1]: 23.1 µM [falling, partial curve, poor fit]

SMILES: O=C(COC(=O)c1ccccc1[N+](=O)[O-])c1ccc(C2CCCCC2)cc1
- AC50 [1]: 2.82 µM [rising, single point]

SMILES: CCOC(=O)C(C)NC(=O)CCc1nnc2ccc(N3CCCCC3)nn12 (stereo unspecified)
- AC50 [1]: 0.355 µM [rising, full curve, poor fit]

SMILES: O=C(COC(=O)[C@@H]1CC(O)CN1S(=O)(=O)c1ccc([N+](=O)[O-])cc1)NC12CC3CC(CC(C3)C1)C2 (stereo partly specified)
- AC50 [1]: 0.0517 µM [rising, full curve, poor fit]

SMILES: Oc1c(CN2CCCCC2)cc(COCc2ccccc2)c2cccnc12
- AC50 [1]: 0.501 µM [rising, full curve]

SMILES: Cc1ccc(/C=N/NS(=O)(=O)c2ccc([N+](=O)[O-])cc2)o1
- AC50 [1]: 8.2 µM [rising, partial curve, poor fit]

SMILES: O=c1c(Cc2ccc(Cl)cc2Cl)c(O)ccn1Cc1ccc(Cl)cc1
- AC50 [1]: 8.2 µM [falling, partial curve]

SMILES: CCc1ccn2cc(-c3cc(-c4ccccc4)no3)nc2c1
- AC50 [1]: 3.55 µM [falling, partial curve, poor fit]

SMILES: CCCS(=O)(=O)N1CCC(Cc2ccc(OC)cc2)(C(=O)OCC)CC1
- AC50 [1]: 11.2 µM [rising, partial curve, poor fit]

SMILES: CC(C)CSc1nnc2[nH]c(=O)cc(N)n12
- AC50 [1]: 16.4 µM [rising, partial curve, poor fit]

SMILES: O=C(CCCN1C(=O)/C(=C/c2ccc3c(c2)OCO3)SC1=S)Nc1cccc(C(=O)O)c1
- AC50 [1]: 35.5 µM [rising, single point]

SMILES: Cc1cc(Nc2ccccc2)n2nc(C)c(-c3ccccc3)c2n1
- AC50 [1]: 6.31 µM [falling, partial curve, poor fit]

SMILES: C=CCn1c(SCc2nc3ccccc3nc2C)nnc1-c1ccoc1C
- AC50 [1]: 22.4 µM [falling, single point]

SMILES: CC(C)C(CCNC1CCN(C)CC1)c1ccc(Cl)cc1 (stereo unspecified)
- AC50 [1]: 6.31 µM [falling, partial curve, poor fit]

SMILES: N#CC1=C(N)N(c2ccccc2)C(c2ccccc2)C1(C#N)C#N (stereo unspecified)
- AC50 [1]: 3.16 µM [rising, partial curve, poor fit]
- AC50 (measured here: IkBa-CBG green luminescence): 3.16 µM [falling, partial curve, poor fit]

SMILES: O/N=C(\c1ccc(Cl)cc1)c1cc2ccccc2o1
- AC50 [1]: 7.31 µM [rising, single point]

SMILES: CCc1nc(NCC(C)C)c(C#N)c2c1COC(C)(C)C2
- AC50 [1]: 22.4 µM [falling, single point]

SMILES: O=C(NC(Nc1nc2ccc([N+](=O)[O-])cc2s1)(C(F)(F)F)C(F)(F)F)c1ccccc1
- AC50 [1]: 0.731 µM [falling, full curve]

SMILES: Cc1cc(C)n2nnnc2c1C#N
- AC50 [1]: 16.4 µM [rising, partial curve, poor fit]

SMILES: Cc1cccc(-c2noc(CN(C(=O)c3c(-c4ccccc4Cl)noc3C)C(C)C)n2)c1
- AC50 [1]: 14.1 µM [falling, single point]

SMILES: O=S(=O)(c1cc(C(F)(F)F)ccc1Cl)N1CCN(c2ccccn2)CC1
- AC50 [1]: 35.5 µM [rising, single point]

SMILES: Cc1nc(NC(=O)c2ccccc2)sc1-c1csc(Nc2cccc(F)c2)n1
- AC50 [1]: 5.62 µM [falling, partial curve, poor fit]

SMILES: CC1(C)CC(CCN(Cc2ccccc2)C(=O)c2ccco2)(c2ccccc2)CCO1 (stereo unspecified)
- AC50 [1]: 4.11 µM [falling, partial curve, poor fit]

SMILES: O=[N+]([O-])c1cccc(S(=O)(=O)c2ccc(NCCO)c([N+](=O)[O-])c2)c1
- AC50 [1]: 0.708 µM [falling, partial curve, poor fit]

SMILES: CSc1cc(-c2ccccc2)n(Cc2ccc(Cl)cc2Cl)c(=O)c1C#N
- AC50 [1]: 1.03 µM [rising, partial curve, poor fit]

SMILES: CC(=O)N(c1ccccc1)c1nnc(-c2cnc(C)cn2)s1
- AC50 [1]: 0.282 µM [rising, full curve, poor fit]

SMILES: CCCCNC(=O)CC1N=C2c3ccccc3N=C(SCC(=O)Nc3ccccc3OC)N2C1=O (stereo unspecified)
- AC50 [1]: 14.1 µM [falling, partial curve, poor fit]

SMILES: COc1ccccc1N(Cc1cc(=O)[nH]c2ccccc12)C(=O)C(C)C
- AC50 [1]: 14.1 µM [falling, single point]

SMILES: O=C(Nc1ccc(O)cc1C(=O)O)c1cccs1
- AC50 [1]: 35.5 µM [falling, single point]

SMILES: COc1cc(NC(=O)CSc2ncnc3scc(-c4ccccc4)c23)c(C(=O)O)cc1OC
- AC50 [1]: 11.2 µM [rising, partial curve, poor fit]

SMILES: Cc1ccc(NC(=O)C2CCCN(C(=O)c3ccc(Cl)cc3)C2)cc1S(=O)(=O)N1CCOCC1 (stereo unspecified)
- AC50 [1]: 17.8 µM [rising, partial curve, poor fit]

SMILES: O=C(COc1ccc(Br)cc1CNC1CCCC1)Nc1ccccc1
- AC50 [1]: 31.6 µM [falling, single point]

SMILES: COc1ccc(N2C(=O)CC(Sc3nnnn3-c3ccc(F)cc3)C2=O)cc1 (stereo unspecified)
- AC50 [1]: 11.2 µM [falling, partial curve]

SMILES: CCOC(=O)N1CCC(NC(=O)c2cc3c(=O)[nH]c4ccccc4c3n2C)CC1
- AC50 [1]: 2.82 µM [rising, full curve, poor fit]

SMILES: COCCNC(=S)N1CCCN(c2nc3cc(C)ccc3cc2C#N)CC1
- AC50 [1]: 1.26 µM [rising, full curve, poor fit]

SMILES: COc1cc2c(cc1OC)CN(S(C)(=O)=O)CC2
- AC50 [1]: 6.51 µM [falling, single point]

SMILES: O=C(Nc1ccc(S(=O)(=O)N2CCCCCC2)cc1)c1c(F)cccc1F
- AC50 [1]: 35.5 µM [falling, single point]
